# Data reported in US9057734B2, “Optogenetic probes for measuring membrane potential” (President and Fellows of Harvard College, priority 2010, dated 2015).
# B1: Arch D95N: D95N mutant of Archaerhodopsin 3 without photocurrent, voltage indicator (protein, UniProt P96787 7-258, looked up, variant D95N)
# Archaerhodopsin-3: QAGYDLLGDGRPETLWLGIGTLLMLIGTFYFLVRGWGVTDKDAREYYAVTILVPGIASAAYLSMFFGIGLTEVTVGGEMLDIYYARYANWLFTTPLLLLDLALLAKVDRVTIGTLVGVDALMIVTGLIGALSHTAIARYSWWLFSTICMIVVLYFLATSLRSAAKERGPEVASTFNTLTALVLVLWTAYPILWIIGTEGAGVVGLGIETLLFMVLDVTAKVGFGFILLRSRAILGDTEAPEPSAGADVSAAD
# B2: Arch 3 WT: Archaerhodopsin 3, light-driven proton pump from Halorubrum sodomense, used as fluorescent voltage indicator (protein)
# chain: MDPIALQAGYDLLGDGRPETLWLGIGTLLMLIGTFYFLVRGWGVTDKDAREYYAVTILVPGIASAAYLSMFFGIGLTEVTVGGEMLDIYYARYADWLFTTPLLLLDLALLAKVDRVTIGTLVGVDALMIVTGLIGALSHTAIARYSWWLFSTICMIVVLYFLATSLRSAAKERGPEVASTFNTLTALVLVLWTAYPILWIIGTEGAGVVGLGIETLLFMVLDVTAKVGFGFILLRSRAILGDTEAPEPSAGADVSAAD
# modifications: Halorubrum sodomense
# notes: Archaerhodopsin 3, light-driven proton pump from Halorubrum sodomense, used as fluorescent voltage indicator
# Tested on: HEK-293 cells
# Test: Fluorescence versus membrane potential under whole-cell voltage clamp (ramp, step, frequency response, noise)
# Type: cell-based, human
# Settings: for Noise in V̂FL (membrane potential estimated from fluorescence): frequencies f ≧ 0.1 Hz in HEK cells; for noise/accuracy of voltage estimated from fluorescence: over timescales <12 s
# Description: Fluorescence of Arch 3 in HEK 293 cells was readily imaged in an inverted fluorescence microscope with red illumination (λ=640 nm, I=540 W/cm^2), a high numerical aperture objective, a Cy5 filter set, and an EMCCD camera. […] Cells not expressing Arch were not fluorescent.
# HEK-293 cells were grown at 37° C., 5% CO2, in DMEM supplemented with 10% FBS and penicillin-streptomycin. Plasmids were transfected using LIPOFECTAMINE™ and PLUS reagent (Invitrogen) following the manufacturer's instructions, and assayed between 48-72 hours later. The day before recording, cells were re-plated onto glass-bottom dishes (MatTek) at a density of ˜5000 cells/cm^2.
# The concentration of endogenous retinal in the HEK cells was not known, so the cells were supplemented with retinal by diluting stock retinal solutions (40 mM, DMSO) in growth medium to a final concentration of 5 μM, and then placing the cells back in the incubator for 1-3 hours. All imaging and electrophysiology were performed in Tyrode's buffer (containing, in mM: 125 NaCl, 2 KCl, 3 CaCl2, 1 MgCl2, 10 HEPES, 30 glucose pH 7.3, and adjusted to 305-310 mOsm with sucrose). Only HEK cells having reversal potentials between −10 and −40 mV were included in the analysis.
# Simultaneous fluorescence and whole-cell patch clamp recordings were acquired on a home-built, inverted epifluorescence microscope at room temperature. A diode laser operating at 100 mW, 640 nm (CrystaLaser, DL638-100-O) provided wide-field illumination at an intensity typically between 500-2000 W/cm^2. To minimize background signal from out-of-focus debris, illumination was often performed in through-the-objective total internal reflection fluorescence (TIRF) mode. Fluorescence emission was collected using a 60×, 1.45 NA oil immersion objective (Olympus), and separated from scattered excitation using a 660-760 nm bandpass emission filter (Chroma). For fast imaging of dynamic fluorescence responses and action potentials, images were acquired on an Andor iXon^+ 860 camera operating at up to 2,000 frames/s (using a small region of interest and pixel binning). Slower images with higher spatial resolution were acquired on an Andor iXon^+ 897 EMCCD. Custom software written in LabView (National Instruments) was used to synchronize illumination, collection of images, recording of membrane potential and cell current, and application of electrical stimuli to the cell.
# Filamented glass micropipettes (WPI) were pulled to a tip resistance of 3-10 MΩ, fire polished, and filled with internal solution (containing, in mM: 125 Potassium gluconate, 8 NaCl, 0.6 MgCl2, 0.1 CaCl2, 1 EGTA, 10 HEPES, 4 Mg-ATP, 0.4 Na-GTP, pH 7.3; adjusted to 295 mOsm with sucrose). The micropipettes were positioned with a Burleigh PCS 5000 micromanipulator. Whole-cell, voltage clamp recordings were acquired using an AxoPatch 200B amplifier (Molecular Devices), filtered at 2 kHz with the internal Bessel filter, and digitized with a National Instruments PCIE-6323 acquisition board at 10 kHz. Ambient 60 Hz noise was removed using a HumBug Noise Eliminator (AutoMate Scientific). For experiments requiring rapid modulation of transmembrane potential, series resistance and whole-cell capacitance were predicted to 95% and corrected to ˜50%. Electrical stimuli were generated using the PCIE-6323 acquisition board and sent to the AXOPATCH™, which then applied these signals in either constant current or constant voltage mode.
# To measure fluorescence as a function of membrane potential, a triangle wave was applied, with amplitude from −150 mV to +150 mV and period 12 s, with video recording at 100 ms per frame. A pixel weight matrix was calculated according to Eq. S2 and applied to the movie images to generate a fluorescence number for each frame. These fluorescence values were divided by their minimum value (at V=−150 mV). The result is plotted as a function of Vin FIGS. 7 and 8. […]
Molecule,Noise in V̂FL (membrane potential estimated from fluorescence) [μV/Hz^1/2],noise/accuracy of voltage estimated from fluorescence,share of step response in the fast component (step response) [%],"shot-noise limited noise floor in V̂FL (voltage clamp at constant V=0 mV, frequencies above 10 Hz)"
B1,260,260 μV/(Hz)^1/2,20,
B2,625,625 μV/(Hz)^1/2,,470 μV/(Hz) ½
